According to PMC3033795:

Key:
[1] = tested on: scasRap1-DBD (crude E. coli extract) (Saccharomyces castellii Y320); assay: competition EMSA; conditions: 2000x competitor; 10 mM Tris-HCl pH 7.5, 7 mM MgCl2, 8% glycerol, 10 fmol probe, 1 ug poly(dI-dC) or 1.5 ug E. coli gDNA/yeast tRNA/salmon sperm DNA mix, 15 min 25 C; gel 1xTBE at 4 C; protein in a lysate after overexpression; protein details: GST fusion (56 kDa, uncleaved in crude extract)
[2] = tested on: scasRap1 full-length (Saccharomyces castellii); assay: competition EMSA; conditions: 1000x competitor, 10 mM Tris-HCl pH 7.5, 7 mM MgCl2, 8% glycerol, 10 fmol probe, 1 ug poly(dI-dC) or 1.5 ug E. coli gDNA/yeast tRNA/salmon sperm DNA mix, 15 min 25 C, gel 1xTBE at 4 C, recombinant protein
[3] = tested on: scasRap1 full-length (Saccharomyces castellii); assay: EMSA; conditions: 10 mM Tris-HCl pH 7.5, 7 mM MgCl2, 8% glycerol, 10 fmol probe, 1 ug poly(dI-dC) or 1.5 ug E. coli gDNA/yeast tRNA/salmon sperm DNA mix, 15 min 25 C, gel 1xTBE at 4 C, recombinant protein
[4] = tested on: scasRap1-DBD (purified) (Saccharomyces castellii Y320); assay: EMSA; conditions: 10 mM Tris-HCl pH 7.5, 7 mM MgCl2, 8% glycerol, 10 fmol probe, 1 ug poly(dI-dC) or 1.5 ug E. coli gDNA/yeast tRNA/salmon sperm DNA mix, 15 min 25 C, gel 1xTBE at 4 C, recombinant protein
[5] = tested on: scasRap1-DBD (crude E. coli extract) (Saccharomyces castellii Y320); assay: EMSA; conditions: crude extract; 10 mM Tris-HCl pH 7.5, 7 mM MgCl2, 8% glycerol, 10 fmol probe, 1 ug poly(dI-dC) or 1.5 ug E. coli gDNA/yeast tRNA/salmon sperm DNA mix, 15 min 25 C; gel 1xTBE at 4 C; protein in a lysate after overexpression; protein details: GST fusion (56 kDa, uncleaved in crude extract); label: 32P 5' forward strand when probe
[6] = label: 32P 5' forward strand when probe

| Sequence | binding result [1] | binding result ([2]; most severe group) | further results |
| --- | --- | --- | --- |
| CGGTGTCTGGGTGT (double strand) [Scast14C1] | binds | – | – |
| GCGTGTCTGGGTGT (double strand) [Scast14C2] | binds more weakly | – | binding result [2]: binds more weakly |
| GGCTCTCTGGGTGT (double strand) [Scast14C3] | binds more weakly | – | binding result [2]: binds more weakly |
| GGGAGTCTGGGTCT (double strand) [Scast14C4] | binds more weakly | binds more weakly | – |
| GGGTCTCTGGCTGT (double strand) [Scast14C11] | binds more weakly | binds more weakly | – |
| GGGTCTCTGGGTGT (double strand) [Scast14C5] | binds more weakly | binds more weakly | – |
| GGGTCTGTGGGTGT (double strand) [Scast14C7] | binds | – | binding result [2]: binds |
| GGGTGACTGGGTGT (double strand) [Scast14C6] | binds more weakly | – | binding result [2]: binds more weakly |
| GGGTGTCAGGGTCT (double strand) [Scast14C8] | binds more weakly | binds more weakly | – |
| GGGTGTCTCGGTGT (double strand) [Scast14C9] | binds more weakly | binds more weakly | – |
| GGGTGTCTGCGTGT (double strand) [Scast14C10] | binds more weakly | binds more weakly | – |
| GGGTGTCTGGG (double strand) [Scast11C] | – | – | binding result ([3]; label: 32P 5' forward strand): no binding; binding result ([4]; label: 32P 5' forward strand): no binding |
| GGGTGTCTGGGACT (double strand) [Scast14C12] | binds more weakly | – | – |
| GGGTGTCTGGGT (double strand) [Scast12C (MBS)] | – | – | binding result ([3]; label: 32P 5' forward strand): binds; binding result ([4]; label: 32P 5' forward strand): binds |
| GGGTGTCTGGGTCT (double strand) [Scast14C13] | binds more weakly | – | – |
| GGGTGTCTGGGTGA (double strand) [Scast14C14] | binds | – | – |
| GGGTGTCTGGGTGT (double strand) [Scast14C] | – | – | binding result [3, 6]: binds; binding result [4, 6]: binds |
| GGTGTCTGGGTG (double strand) [Scast12F] | – | – | binding result ([3]; label: 32P 5' forward strand): no binding; binding result ([4]; label: 32P 5' forward strand): no binding |
| GGTGTCTGGGTGTCTG (double strand) [Scast16F] | – | – | binding result ([3]; label: 32P 5' forward strand): binds; binding result ([4]; label: 32P 5' forward strand): binds |
| GTGTCTGGGTGTCTGGGTG (double strand) [Scast19F] | – | – | binding result [5]: binds; binding result [3, 6]: binds; binding result [4, 6]: binds |

The exact form of at least one protein or probe is not confirmed. For some of these results: A negative result means that nothing was seen under these conditions. For some of these results: Weaker means in comparison with the reference protein, sequence or condition of that experiment. For some of these results: Results from cells or extracts need not show a direct contact. For some of these results: At least one verdict was read from the data and is not stated in words by the source.
